In US12492378B2, “Stepwise method of producing various types of cells from pluripotent stem cells” (Kyoto University, priority 2018, dated 2025):
For at least one compound, name, drawing or mass did not settle the structure.

Assays:
[1] = system: somite cell-derived mesenchymal stromal cells induced from FOP-iPS cells; experiment: 2D chondrogenic induction of FOP-iPS cell-derived mesenchymal stromal cells; assay type: cell-based, human; conditions: 10 nM, with 30 ng/ml Activin A, 5 days
Method: The GAG content in pellets was quantified with the Blyscan™ Glycosaminoglycan Assay Kit (Biocolor Ltd., Belfast, UK). The DNA content was quantified using the PicoGreen™ dsDNA Quantitation Kit (Invitrogen).
A total of 1.5×10^5 induced mesenchymal stromal cells or sclerotome cells were suspended in 5 μL of chondrogenic basal. medium (DMEM: F12 (Invitrogen), 1% (v/v) ITS+Premix (BD Biosciences, San Jose, CA, USA), 0.1 μM dexamethasone (WAKO), 0.17 mM L-Ascorbic acid 2-phosphate sesquimagnesium salt hydrate (Sigma), 0.35 mM Proline (Sigma), 0.15% (v/v) glucose (Sigma), 1 mM Na-pyruvate, 2 mM GlutaMax (Invitrogen) and 1% (v/v) FBS), and subsequently transferred to one well of a fibronectin-coated 24-well plate (BD Biosciences). After one hour of incubation at 37° C. in 5% CO2, cells formed micromass.
Then, the micromass was cultured in 1 ml of chondrogenic basal medium supplemented with 10 ng/ml BMP7 (R&D) and 10 ng/ml TGFβ3 (R&D) with or without 30 ng/ml Activin A (R&D) at 37° C. in 5% CO2 for 5 days.
The micromass induced from somite cell-derived mesenchymal stromal cells from FOP-iPS cells was also cultured in 1 mL of chondrogenic basal medium supplemented with 30 ng/ml Activin A (R&D) with/without 10 nM R667 (Toronto Research Chemicals, Toronto, ON, Canada) or 10 nM Rapamycin (MedChem Express, Monmouth Junction, NJ, USA).
Differentiation properties of obtained cells were analyzed by RT-qPCR analysis, glycosaminoglycans (GAG) quantification and Alcian Blue staining. Briefly, induced cells were fixed for 30 minutes with 4% paraformaldehyde (WAKO), rinsed with PBS, and then stained overnight with Alcian Blue solution (1% Alcian Blue, pH1) (MUTO PURE CHEMICAL CO., LTD, Tokyo, Japan).

[2] = system: heterotopic ossification; conditions: reported, Hino et al., 2017; cited from earlier work

With `CO[C@H]1C[C@@H]2CC[C@@H](C)[C@@](O)(O2)C(=O)C(=O)N2CCCC[C@H]2C(=O)O[C@H]([C@H](C)C[C@@H]2CC[C@@H](O)[C@H](OC)C2)CC(=O)[C@H](C)/C=C(\C)[C@@H](O)[C@@H](OC)C(=O)[C@H](C)C[C@H](C)/C=C/C=C/C=C/1C` [Rapamycin] the “enhanced chondrogenesis by Alcian Blue staining” value [1] was “inhibition of the enhanced chondrogenesis was also confirmed”, the “enhancement of glycosaminoglycan (GAG) production” value ([1]; GAG/DNA) was “significantly inhibited” and the “enhancement of chondrogenic marker expressions” value ([1]; RT-qPCR) was “significantly inhibited”. For the same compound, the “inhibition of heterotopic ossification” value [2] was “potent inhibitors”.
